Assay results from patent US9073963B2 (Universite De Montreal, priority 2003, dated 2015).
For at least one compound, name, drawing or mass did not settle the structure. Where a SMILES comes first, the peptide text is derived from it. [ ]: non-standard residue; d: D form. 3Pal = N[C@@H](Cc1cccnc1)C(=O)O

Protein sequences, listed by entry. Tags and fused reporters are not part of them. Residues count along the entry.
UniProt C6GAG8, 1-362: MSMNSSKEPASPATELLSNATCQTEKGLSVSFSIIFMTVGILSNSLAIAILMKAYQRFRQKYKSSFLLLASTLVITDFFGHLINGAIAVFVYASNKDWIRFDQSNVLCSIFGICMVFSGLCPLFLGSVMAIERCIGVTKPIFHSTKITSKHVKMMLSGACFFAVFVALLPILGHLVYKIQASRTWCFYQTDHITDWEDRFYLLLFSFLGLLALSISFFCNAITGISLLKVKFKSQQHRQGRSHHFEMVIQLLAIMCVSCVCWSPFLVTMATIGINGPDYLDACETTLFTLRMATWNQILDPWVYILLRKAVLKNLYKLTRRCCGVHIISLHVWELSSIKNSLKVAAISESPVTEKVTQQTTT

Biological target: T1, FP receptor (Sus scrofa, UniProt C6GAG8)
T1 construct: the porcine eyecup model, an ex vivo assay of vascular constriction in porcine retinas; from tissue; host or cells: retinal microvessels in eyecups of newborn pigs pre-treated with ibuprofen
Test: Porcine retinal (ocular) microvascular contraction to PGF2α, eyecup assay
Conditions: porcine ocular contractility induced by 1 μM PGF2α
Procedure: The preparations were allowed to stabilize for 30 min.
Percent (%) inhibition denotes porcine ocular microvessel contraction in response to 100 nM PGF2α in the presence of 0.1 mM peptide relative to that in the absence of the peptide, expressed as percentage.

Work on `CC[C@@H](C)[C@@H](N)C(=O)N[C@H](CC(C)C)C(=O)NCC(=O)N[C@H](Cc1c[nH]cn1)C(=O)N[C@@H](Cc1cccnc1)C(=O)N[C@H](CCC(N)=O)C(=O)N[C@H](CC(=O)O)C(=O)N[C@H](Cc1ccc(O)cc1)C(=O)N[C@H](CCCCN)C(=O)O` [Compound 30] (H-[dI][dL]G[dH][3Pal][dQ][dD][dY][dK]-OH; N-terminus and C-terminus assumed) yielded an IC50 of 0.027 µM.
